From patent publication US10064928B2, “Peptides and combination of peptides for use in immunotherapy against CLL and other cancers” (IMMATICS BIOTECHNOLOGIES GMBH, priority 2015, dated 2018)

Experiments:
[1] = system: CLL samples compared to a panel of normal tissues; assay: Identification and label-free relative LC-MS quantitation of HLA-presented peptides (presentation profiles and scores); design: species or system human; key: very highly over-presented on tumors compared to a panel of normal tissues (+++); highly over-presented on tumors compared to a panel of normal tissues (++); over-presented on tumors compared to a panel of normal tissues (+); conditions: presentation score; over-presentation on tumors (CLL samples) compared to a panel of normal tissues
NSCLC tumor samples = assay: Absolute quantitation of TUMAP copies per cell by nanoLC-MS/MS; design: species or system human; conditions: median number of copies per cell
[2] = system: other tumor types (e.g. non-Hodgkin lymphoma, lung cancer); assay: Presentation of the peptides on additional tumor types (LC-MS, Tables 4A/4B, FIG. 1); design: species or system human; conditions: for Other relevant organs/diseases: Table 4A: additional tumor types where the peptide was over-presented on more than 5% of the measured tumor samples, or presented on more than 5% with ratio of geometric means tumor vs normal tissues larger than 3; for Additional Entities: Table 4B: additional tumour types with over-presentation (including specific presentation) on more than 5% of the measured tumour samples, or presentation on more than 5% with ratio of geometric means tumour vs normal tissues larger than 3, extended normal tissue panel
[3] = system: mRNA of source genes in tumors compared to a panel of normal tissues; assay: Expression profiling of source genes by RNAseq (expression scores); design: species or system human; key: very highly over-expressed in tumors compared to a panel of normal tissues (+++); highly over-expressed in tumors compared to a panel of normal tissues (++); over-expressed in tumors compared to a panel of normal tissues (+); conditions: expression score of the source gene, tumors vs panel of normal tissues

Row | Substance | Peptide Presentation [1] | Copy Number Category (NSCLC tumor samples) | Other relevant organs/diseases [2] | Gene Expression [3] | Additional Entities [2]
1 | 62 (GIIDGSPRL; listed as Homo sapiens) [compound 62] | + | + (<100 = +) | NHL |  | 
2 | 149: peptide found in LYN (gene looked up) (SLDNGGYYI; listed as Homo sapiens) [compound 149] | +++ |  | NHL | +++ | 
3 | 153 (SLLAELHVL; listed as Homo sapiens) [compound 153] | ++ | ++ (>=100 = ++) | NHL |  | 
4 | 177: peptide found in PASK (gene looked up) (VLDDRELLL; listed as Homo sapiens) [compound 177] | +++ |  | NHL | ++ | 
5 | 193: peptide found in TLR10 (gene looked up) (YLDLSNNRL; listed as Homo sapiens) [compound 193] | +++ |  | NHL | + | 
6 | 195: peptide found in SYK (gene looked up) (YLGGFALSV; listed as Homo sapiens) [compound 195] | +++ |  | NHL, AML | ++ | 
7 | 221: peptide found in ORAI2 (gene looked up) (ALVSTIIMV; listed as Homo sapiens) [compound 221] | + |  | NHL, AML | + | Brain Cancer
8 | 251: peptide found in SP140 (gene looked up) (LLYDNVPGA; listed as Homo sapiens) [compound 251] | + |  | NHL | +++ | 
9 | 286: peptide found in FANCD2 (gene looked up) (FLLEDLSQKL; listed as Homo sapiens) [compound 286] | +++ |  | NHL | ++ | Uterine Cancer
10 | 294: peptide found in NCOA3 (gene looked up) (ALLDQLHTLL; listed as Homo sapiens) [compound 294] | + |  | NHL | + | AML
11 | 300: peptide found in NUP210 (gene looked up) (ILLNPAYDVYL; listed as Homo sapiens) [compound 300] | ++ |  | NHL, Melanoma | ++ | 
12 | 307: peptide found in PLCG2 (gene looked up) (LLLTKPTEA; listed as Homo sapiens) [compound 307] | ++ |  | NHL | ++ | 
13 | 308: peptide found in PLCG2 (gene looked up) (SLYDVSRMYV; listed as Homo sapiens) [compound 308] | +++ |  | NHL | + | 
14 | 309: peptide found in PLCG2 (gene looked up) (ILYGTQFVL; listed as Homo sapiens) [compound 309] | + |  | NHL | ++ | 
15 | 312: peptide found in MYO1G (gene looked up) (LLYNSTDPTL; listed as Homo sapiens) [compound 312] | +++ |  | NHL | + | Urinary Bladder Cancer
16 | 330: peptide found in BTK (gene looked up) (VLMWEIYSL; listed as Homo sapiens) [compound 330] | ++ |  | NHL | ++ | 
17 | 337: peptide found in IKZF3 (gene looked up) (YMYEKESEL; listed as Homo sapiens) [compound 337] | ++ |  | NHL | +++ | 
18 | 380: peptide found in SYK (gene looked up) (YLDRKLLTL; listed as Homo sapiens) [compound 380] | + |  | NHL | ++ | 

For some of these results: Expression values are those of the mRNA of the gene that encodes the peptide; a gene is named only where it was looked up.
